From PubChem BioAssay AID638 (SRMLSC, 2007)
Among all 1,300 compounds or so, about 65 (5%) were called active.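 The calls were made as follows: active = growth inhibition reaching a set limit at one or more tested doses; inactive = the rest.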 This is one part of the list. Measured potencies and affinities stand elsewhere.

assay: wild-type E. coli BW25113 antibacterial activity – OD615, dose response (AID 638); conditions: at 100 µM (top of the series) unless noted
How it was run: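 Assay system: E. coli BW25113 wild type; buffer or medium: Kanamycin-supplemented LB broth; signal: optical density (absorbance) at 615 nm; controls: chloramphenicol 30 µM control; doses: compound concentration series; times: bacterial exposure to compound 20 h at 37 °C; evaluation: IC50 from 4-parameter logistic, bounds fixed 0–100%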

Growth inhibition, active:
N#Cc1nc(Cc2cccc3ccccc23)oc1NCc1ccc(F)cc1 20%

Growth inhibition, inactive:
O=C(CSc1nnc(Cc2cccs2)n1Cc1ccco1)Nc1ccc(Br)cc1 8.53%
CCOC(=O)C1CN(c2cc3c(cc2F)c(=O)c(C(=O)O)cn3CC)OC1C(=O)OCC (stereo not drawn) 3.92%
Cc1cccc(N(C)C(=O)c2cc3cc4ccc(C)cc4nc3o2)c1 -7.38%
O=C(NCc1ccco1)c1ccc(S(=O)(=O)N2CCCc3ccccc32)cc1 -13.8%
Cc1csc(NC(=O)CSc2ncnc3c2cnn3-c2ccccc2Cl)n1 12.5%
COc1cccc(NC(=O)N2CCN(c3cccc(C)c3C)CC2)c1 -4.92%
Oc1ccccc1-c1nc(NCC2CCCO2)c2ccccc2n1 (stereo not drawn) 5.18%
COc1cc(NS(=O)(=O)c2ccc(Br)cc2)c(OC)cc1NC(=O)c1ccco1 -12%
O=C(COc1ccc(Cl)cc1)Nc1nnc(-c2ccc3c(c2)CCCC3)o1 -13.5%
CCCCCc1c(C)nc(Nc2ccccc2)[nH]c1=O 1.06%
O=c1cc(O)c2c(=O)n3c4c(cccc4c2o1)CCC3 0.39%
Clc1ccc(Cn2ncc3c(N4CCCCC4)ncnc32)c(Cl)c1 0.78%
COC(=O)c1ccc(CSc2nc3ccccc3o2)cc1 10.6%
O=C1c2[nH]nc(-c3ccccc3O)c2C(c2cccc(Cl)c2)N1CC1CCCO1 (stereo not drawn) 3.79%
Cc1noc(C)c1C(=O)Nc1sc(C)c(-c2ccccc2)c1C#N 8.14%
CCCCC(=O)c1c(O)c2ccccc2oc1=O -1.58%
Cc1ccc(C(c2nnnn2CCc2ccccc2)N2CCSCC2)cc1 (stereo not drawn) -2.36%
CCc1nc2sc3ccccc3c(=O)c2c(=O)n1Cc1ccco1 -1.58%
O=C(Nc1cccc(S(=O)(=O)c2cccc(NC(=O)C3CC3)c2)c1)C1CC1 8.8%
COc1cc(-c2nc(-c3cccc(C)c3)no2)cc(OC)c1OC -1.68%
O=C(NCc1ccc2c(c1)OCO2)c1ccc(COc2cccc(Cl)c2)o1 -1.19%
Cc1cc(-c2ccco2)c(C#N)c2nc3ccccc3n12 -4.65%
c1ccc(-c2nc(N3CCCCCC3)c3ccccc3n2)nc1 17.1% [at 50 µM]
C=CCn1c(SCC(=O)Nc2ccc3c(c2)CCC3)nnc1-c1cccs1 -1.56%
Cc1cccc(N2C(N)=C(C#N)C(C#N)(C#N)C2c2ccccc2)c1 (stereo not drawn) -0.76%
CCN1C(=O)CSC1=NC1C2CC3CC(C2)CC1C3 (stereo not drawn) 9.49%
Cc1cc(OCCCC(=O)N2CCCCC2)cc(C)c1Cl -2.2%
CCc1nc2ccccc2c(=O)n1NC(=O)c1c(O)c2cccc3c2n(c1=O)CCC3 -13.7%
CC(=O)c1ccccc1OCC(O)CN1CCN(C(c2ccccc2)c2ccccc2)CC1 (stereo not drawn) -7.24%
CCOC(=O)c1c(NC(=O)CN2CCCCC2)sc2c1CCN(C(=O)OCC)C2 -12.4%
Oc1ccc(-c2[nH]ncc2-c2ccc(Cl)cc2)c(O)c1 17.8%
CCN1/C(=C(\O)c2ccccc2)C(=O)c2ccccc2S1(=O)=O -3.95%
O=C(Nc1nnc(-c2ccc(Cl)cc2)o1)c1ccccc1Br 5.98% [at 50 µM]
N#Cc1nc(-c2ccc(OCc3ccccc3)cc2)oc1NCCCn1ccnc1 18.4%
CC1Cc2cc(-c3csc(NC(=O)Cc4cccs4)n3)ccc2N1S(C)(=O)=O (stereo not drawn) -20.5%
CCOC(=O)C1=C(C)NC(SCC(=O)Nc2cc(C)on2)=C(C#N)C1c1cccs1 (stereo not drawn) 3.97%
Cc1ccc(C)c(C(=O)CSc2n[nH]c(-c3ccncc3)n2)c1 6.84%
CCN(c1cccc(C(F)(F)F)c1)S(=O)(=O)c1ccc2c(c1)CCN2C(=O)C1CC1 4.36%
Brc1cccc(-c2n[nH]c(-c3ccccc3)n2)c1 -2.8%
O=C(COc1ccc(Cl)cc1)Nc1nc(-c2cccs2)cs1 -4.14%
CCn1cc(C(=O)O)c(=O)c2cc(OC)ccc21 19.6%
COc1ccc2c(c1)sc1nc(-c3ccccc3)cn12 -8.31%
CSc1ccc(-c2cc(=O)c3ccccc3o2)cc1 10.8%
O=C(Nc1ccccc1N1CCCCC1)c1cccs1 1.03%
CCOc1ccccc1C(=O)NC(C(=O)OCC(=O)Nc1nnc(-c2ccccc2)o1)C(C)C (stereo not drawn) 4.14%
Cc1ccc(-c2nnc(SCC(=O)N3CC(C)CC(C)C3)o2)cc1C (stereo not drawn) 3.62%
CCCc1ccc(Oc2cn[nH]c2-c2ccc(O)c(C)c2O)cc1 10.4%
Cn1c(-c2ccccc2)cc2c3no[n+]([O-])c3ccc21 -8.83%
Cc1c(C(=O)N2CCCCC2)oc2ccc(S(=O)(=O)N3CC(C)CC(C)C3)cc12 (stereo not drawn) -3.91%
Cc1ccc(/C(O)=C2\C(=O)C(=O)N(c3cc(C)on3)C2c2cccc(Br)c2)cc1 (stereo not drawn) 3.58%
COc1cccc(N2CC(C(=O)Nc3ccc(C(=O)OC(C)C)cc3)CC2=O)c1 (stereo not drawn) 5.31%
C=C(C)COc1ccc(-c2[nH]ncc2Oc2ccccc2OCC)c(O)c1 1.48%
CCc1c(C(=O)Nc2ncn(Cc3cccc(C)c3)n2)csc1C 5.41%
C#CCSc1nnc(-c2cccc3ccccc23)o1 5.43%
COC(=O)c1ccc(NC(=O)CN2CCN(c3cccc(Cl)c3)CC2)cc1 -2.21%
CCN(C1CCCCC1)S(=O)(=O)c1ccc(OC)c(C)c1 18.2%
O=C(COc1c(F)c(F)c(C(F)(F)F)c(F)c1F)Nc1ccc(N2CCOCC2)c(Cl)c1 13.3%
Cc1cccnc1NC(=O)c1c(O)c2cccc3c2n(c1=O)CCC3 0.91%
O=S(=O)(Nc1nnc(-c2ccccc2)s1)c1ccc(Cl)cc1 0.26%
Cc1ccc(-c2noc(CCC(=O)N3CCCc4ccccc43)n2)cc1 8.79%
Clc1ccc(OCc2nn3c(C4CCCCC4)nnc3s2)cc1 12.1%
COc1ccc(C(C(O)C(=O)c2c[nH]c3ccccc23)N2CCN(c3ccccc3)CC2)cc1 (stereo not drawn) 10.2%
O=C(c1ccccc1CCc1ccccc1)N1CCN(c2ccccn2)CC1 2.12%
CCC(C)(C)n1nnnc1C(c1cc2ccc(OC)cc2[nH]c1=O)N1CCc2ccccc2C1 (stereo not drawn) -10.1%
Cc1c(C(=O)OC2CCCC2C)[nH]c2c1C(=O)CCC2 (stereo not drawn) 12%
CCN(C(=O)c1ccc(C(C)(C)C)cc1)c1nnc(Cn2nnc3ccccc32)s1 -8.83%
CCSc1nnc(NC(=O)CSc2nccn2-c2cccc(C)c2C)s1 2.99%
O=C(NCC1CCCO1)c1sc(=S)n2c1[nH]c(=O)c1ccc(C(=O)N3CCCCC3)cc12 (stereo not drawn) 5.82%
CCOC(=O)c1cccc2c1-c1ccccc1/C2=N/O -9.29%
Cc1ccc(Nc2nc(CSc3nnnn3-c3ccccc3)cs2)cc1 -16.8%
CCC(Oc1ccccc1)C(=O)Nc1ccc(-c2nnc(-c3ccco3)o2)cc1 (stereo not drawn) -9.73%
O=C(CCC1CCCC1)c1c(O)c2ccccc2oc1=O 6.25%
COc1ccc(CCN2C(=O)c3[nH]nc(-c4ccccc4O)c3C2c2ccc(C)cc2)cc1OC (stereo not drawn) -7.61%
Cc1cc(S(=O)(=O)N2CCN(c3ccccc3C)CC2)ccc1F -8.19%
CCOc1cccc(NC(=O)C2CC(=O)N(C)C(=Nc3cccc(F)c3)S2)c1 (stereo not drawn) -6.98%
COc1ccc(CCNc2oc(COc3ccc(F)cc3)nc2C#N)cc1 -4.26%
N#Cc1nc(COc2ccc(-c3ccccc3)cc2)oc1NCc1cccnc1 -10.3%
CNc1nc(Nc2ccc(C(C)=O)cc2)nc(OC(C(F)(F)F)C(F)(F)F)n1 3.95%
COCCCN1C(=O)c2[nH]nc(-c3ccccc3O)c2C1c1ccc(Cl)cc1 (stereo not drawn) 5.26%
O=c1[nH]c(NCCCO)nc2c1C1(CCCC1)Cc1ccccc1-2 2.85%
COc1ccc(OC)c(Nc2nc(-c3cccs3)cs2)c1 -6.46%
COc1ccccc1N1CCN(C(=O)c2cc(-c3ccc(C)cc3)on2)CC1 -0.92%
CCC(c1nnnn1C1CCCCC1)N(Cc1ccco1)Cc1cc2ccc(OC)cc2[nH]c1=O (stereo not drawn) -1.41%
Cc1ccccc1CSc1nc2n(n1)C(c1cccs1)C1=C(CCCC1=O)N2 (stereo not drawn) -14.8%
COc1ccc(Cn2c(=O)sc3ccccc32)cc1 10.8%
Cc1cccc(N2CCN(C(=O)Cc3c(C(=O)O)[nH]c4ccc(Cl)cc34)CC2)c1C -0.2%
O=C(c1noc2c1CCc1ccccc1-2)N1CCCc2ccccc21 -6.98%
COc1ccc(C2CC(c3ccccc3)n3nc(NC(=O)c4cccs4)nc3N2)cc1 (stereo not drawn) 3.83%
O=C(NC1CCCCCCC1)c1ccccc1O 4.81%
CCOc1ccc(NS(=O)(=O)c2ccc(SC)cc2)cc1 11.9%
Cc1ccc(C)n1-n1cnc2sc(-c3ccccc3)cc2c1=O -14.3%
CC1=C(C(=O)OC(C)C)C(c2c[nH]c3ccccc23)n2ncnc2N1 (stereo not drawn) -1.8%

18 structures from above, arranged by count of non-hydrogen atoms, smallest number first:
Growth inhibition, inactive:
CCCCC(=O)c1c(O)c2ccccc2oc1=O -1.58%
C#CCSc1nnc(-c2cccc3ccccc23)o1 5.43%
COc1ccc2c(c1)sc1nc(-c3ccccc3)cn12 -8.31%
O=C(CCC1CCCC1)c1c(O)c2ccccc2oc1=O 6.25%
O=C(COc1ccc(Cl)cc1)Nc1nc(-c2cccs2)cs1 -4.14%
Cc1ccc(C)n1-n1cnc2sc(-c3ccccc3)cc2c1=O -14.3%
CCc1c(C(=O)Nc2ncn(Cc3cccc(C)c3)n2)csc1C 5.41%
Cc1cccc(N(C)C(=O)c2cc3cc4ccc(C)cc4nc3o2)c1 -7.38%
Cc1ccc(-c2noc(CCC(=O)N3CCCc4ccccc43)n2)cc1 8.79%
COc1ccc(CCNc2oc(COc3ccc(F)cc3)nc2C#N)cc1 -4.26%
Cc1ccccc1CSc1nc2n(n1)C(c1cccs1)C1=C(CCCC1=O)N2 (stereo not drawn) -14.8%
Cc1c(C(=O)N2CCCCC2)oc2ccc(S(=O)(=O)N3CC(C)CC(C)C3)cc12 (stereo not drawn) -3.91%
CCN(C(=O)c1ccc(C(C)(C)C)cc1)c1nnc(Cn2nnc3ccccc32)s1 -8.83%
CCc1nc2ccccc2c(=O)n1NC(=O)c1c(O)c2cccc3c2n(c1=O)CCC3 -13.7%
O=C(COc1c(F)c(F)c(C(F)(F)F)c(F)c1F)Nc1ccc(N2CCOCC2)c(Cl)c1 13.3%
CC(=O)c1ccccc1OCC(O)CN1CCN(C(c2ccccc2)c2ccccc2)CC1 (stereo not drawn) -7.24%
COc1ccc(C(C(O)C(=O)c2c[nH]c3ccccc23)N2CCN(c3ccccc3)CC2)cc1 (stereo not drawn) 10.2%
COc1ccc(CCN2C(=O)c3[nH]nc(-c4ccccc4O)c3C2c2ccc(C)cc2)cc1OC (stereo not drawn) -7.61%

At a glance, 2 of the compounds above:
Growth inhibition, inactive:
Cc1cc(OCCCC(=O)N2CCCCC2)cc(C)c1Cl -2.2%
CCc1nc2ccccc2c(=O)n1NC(=O)c1c(O)c2cccc3c2n(c1=O)CCC3 -13.7%
